Results reported in publication PMC10604066.
Results are given in words; binding and its absence hold for the method and conditions named. Binding seen in cells or lysates may run through a third protein. These calls come from enrichment with a bait or labelling near it, and not all partners need be listed. Tags and fused reporters may be left off the sequences shown. Values belong to the molecule of their own block, whether it stands above or below them.

Amino acid sequences for entries named in this document (tags omitted). A change or cut given only in a name is not applied to a line headed by its entry. Residues count along the entry.
UniProt Q9S7H1, residues 46-208: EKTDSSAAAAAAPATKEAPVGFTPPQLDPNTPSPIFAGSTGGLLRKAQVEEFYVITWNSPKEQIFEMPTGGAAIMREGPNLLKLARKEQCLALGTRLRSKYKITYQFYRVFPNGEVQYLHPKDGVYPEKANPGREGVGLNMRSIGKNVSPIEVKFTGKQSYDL
UniProt Q8W4H7: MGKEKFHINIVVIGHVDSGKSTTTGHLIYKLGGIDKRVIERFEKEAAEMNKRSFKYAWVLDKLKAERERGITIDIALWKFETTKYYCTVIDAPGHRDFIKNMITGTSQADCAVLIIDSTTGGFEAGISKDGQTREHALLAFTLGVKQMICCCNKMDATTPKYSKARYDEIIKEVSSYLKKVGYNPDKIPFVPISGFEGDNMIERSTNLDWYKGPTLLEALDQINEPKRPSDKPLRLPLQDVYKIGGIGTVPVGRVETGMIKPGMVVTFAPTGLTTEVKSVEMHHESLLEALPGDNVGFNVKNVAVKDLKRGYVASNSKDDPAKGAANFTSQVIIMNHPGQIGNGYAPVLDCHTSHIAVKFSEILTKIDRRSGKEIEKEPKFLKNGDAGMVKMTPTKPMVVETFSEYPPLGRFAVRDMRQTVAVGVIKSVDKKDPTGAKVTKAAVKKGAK
UniProt Q9SY97, residues 40-273: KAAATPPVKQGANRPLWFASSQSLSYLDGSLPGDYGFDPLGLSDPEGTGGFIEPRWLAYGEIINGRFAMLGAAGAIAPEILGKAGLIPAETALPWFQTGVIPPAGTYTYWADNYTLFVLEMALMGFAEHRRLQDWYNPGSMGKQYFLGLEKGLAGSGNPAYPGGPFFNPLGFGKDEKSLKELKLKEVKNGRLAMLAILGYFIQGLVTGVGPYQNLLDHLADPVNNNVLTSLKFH
UniProt Q9S7N7, residues 61-160: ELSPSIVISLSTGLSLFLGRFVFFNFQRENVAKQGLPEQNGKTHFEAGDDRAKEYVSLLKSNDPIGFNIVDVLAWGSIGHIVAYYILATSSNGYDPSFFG
UniProt P56773: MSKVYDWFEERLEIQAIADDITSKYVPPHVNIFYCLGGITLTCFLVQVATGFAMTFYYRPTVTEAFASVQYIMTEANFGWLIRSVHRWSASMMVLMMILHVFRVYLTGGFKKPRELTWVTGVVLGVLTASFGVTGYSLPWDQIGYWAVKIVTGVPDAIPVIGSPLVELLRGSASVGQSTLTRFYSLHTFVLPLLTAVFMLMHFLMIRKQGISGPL
UniProt P56766: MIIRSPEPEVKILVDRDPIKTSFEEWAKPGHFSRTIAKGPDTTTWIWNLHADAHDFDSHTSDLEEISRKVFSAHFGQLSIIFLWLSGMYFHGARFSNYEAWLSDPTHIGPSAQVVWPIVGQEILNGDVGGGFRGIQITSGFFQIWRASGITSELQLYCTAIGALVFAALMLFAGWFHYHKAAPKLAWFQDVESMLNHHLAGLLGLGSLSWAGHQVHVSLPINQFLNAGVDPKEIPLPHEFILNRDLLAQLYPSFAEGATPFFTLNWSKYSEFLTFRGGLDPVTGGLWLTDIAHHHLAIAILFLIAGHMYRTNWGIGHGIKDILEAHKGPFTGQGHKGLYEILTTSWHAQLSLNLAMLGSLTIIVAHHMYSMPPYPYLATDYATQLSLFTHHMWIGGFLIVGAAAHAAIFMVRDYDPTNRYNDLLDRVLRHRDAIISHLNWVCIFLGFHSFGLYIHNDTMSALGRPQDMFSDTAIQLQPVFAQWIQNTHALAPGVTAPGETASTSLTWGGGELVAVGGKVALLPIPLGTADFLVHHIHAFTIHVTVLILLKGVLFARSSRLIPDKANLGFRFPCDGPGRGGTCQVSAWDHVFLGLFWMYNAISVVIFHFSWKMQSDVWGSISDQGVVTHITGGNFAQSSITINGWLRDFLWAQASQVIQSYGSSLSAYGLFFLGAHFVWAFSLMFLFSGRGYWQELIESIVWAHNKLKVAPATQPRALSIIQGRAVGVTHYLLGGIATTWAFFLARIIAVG
UniProt Q9S831, residues 45-143: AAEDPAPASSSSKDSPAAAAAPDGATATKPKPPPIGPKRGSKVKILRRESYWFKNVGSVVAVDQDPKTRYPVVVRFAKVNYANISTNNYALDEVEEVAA
UniProt P56767: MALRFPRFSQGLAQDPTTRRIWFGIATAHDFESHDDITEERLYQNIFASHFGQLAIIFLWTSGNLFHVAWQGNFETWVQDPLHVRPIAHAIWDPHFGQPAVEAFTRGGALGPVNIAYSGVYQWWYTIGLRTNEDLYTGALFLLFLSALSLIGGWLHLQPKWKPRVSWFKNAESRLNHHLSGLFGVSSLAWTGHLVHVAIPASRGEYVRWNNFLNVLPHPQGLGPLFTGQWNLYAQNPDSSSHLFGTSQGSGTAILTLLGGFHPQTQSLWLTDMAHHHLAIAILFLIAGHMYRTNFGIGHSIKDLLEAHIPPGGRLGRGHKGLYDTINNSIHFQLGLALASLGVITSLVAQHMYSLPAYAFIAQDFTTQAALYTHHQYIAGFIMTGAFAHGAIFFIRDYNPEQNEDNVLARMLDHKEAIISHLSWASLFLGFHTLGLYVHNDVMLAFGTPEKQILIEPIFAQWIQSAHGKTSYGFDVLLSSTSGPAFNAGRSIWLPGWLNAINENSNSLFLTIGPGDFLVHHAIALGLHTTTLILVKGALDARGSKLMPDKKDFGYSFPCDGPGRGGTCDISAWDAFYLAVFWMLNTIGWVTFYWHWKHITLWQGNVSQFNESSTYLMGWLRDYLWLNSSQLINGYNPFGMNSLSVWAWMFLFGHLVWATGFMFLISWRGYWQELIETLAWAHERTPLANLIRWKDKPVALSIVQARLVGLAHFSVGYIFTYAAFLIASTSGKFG
UniProt Q9SYW8, residues 44-257: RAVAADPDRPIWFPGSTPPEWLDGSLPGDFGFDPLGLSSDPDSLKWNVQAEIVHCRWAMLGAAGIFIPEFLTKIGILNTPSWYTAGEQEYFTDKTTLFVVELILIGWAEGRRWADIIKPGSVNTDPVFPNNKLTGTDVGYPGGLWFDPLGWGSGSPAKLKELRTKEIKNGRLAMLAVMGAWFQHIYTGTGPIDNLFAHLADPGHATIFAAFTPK
UniProt Q949Q5, residues 52-140: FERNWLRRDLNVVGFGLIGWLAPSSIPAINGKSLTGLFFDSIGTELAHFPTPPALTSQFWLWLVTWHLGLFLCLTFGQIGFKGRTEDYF
UniProt P56757: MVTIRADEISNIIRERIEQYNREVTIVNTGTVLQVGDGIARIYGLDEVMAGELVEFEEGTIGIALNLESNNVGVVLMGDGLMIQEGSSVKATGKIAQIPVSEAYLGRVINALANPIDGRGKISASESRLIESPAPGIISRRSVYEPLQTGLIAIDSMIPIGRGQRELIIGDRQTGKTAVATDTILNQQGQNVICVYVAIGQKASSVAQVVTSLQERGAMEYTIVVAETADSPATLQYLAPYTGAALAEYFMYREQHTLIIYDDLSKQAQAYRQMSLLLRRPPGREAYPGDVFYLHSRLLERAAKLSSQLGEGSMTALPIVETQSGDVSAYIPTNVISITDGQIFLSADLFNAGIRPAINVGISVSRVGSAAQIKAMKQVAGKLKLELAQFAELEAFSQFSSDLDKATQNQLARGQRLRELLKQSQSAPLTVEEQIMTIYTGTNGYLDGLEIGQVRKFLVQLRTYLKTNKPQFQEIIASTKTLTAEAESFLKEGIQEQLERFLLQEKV
UniProt Q01667, residues 36-241: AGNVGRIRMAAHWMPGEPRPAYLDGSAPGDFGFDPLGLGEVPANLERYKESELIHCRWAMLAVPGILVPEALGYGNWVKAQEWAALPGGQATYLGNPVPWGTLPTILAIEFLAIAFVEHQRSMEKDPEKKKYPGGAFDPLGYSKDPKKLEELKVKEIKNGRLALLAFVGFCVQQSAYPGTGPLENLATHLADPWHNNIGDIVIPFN
UniProt Q9C944: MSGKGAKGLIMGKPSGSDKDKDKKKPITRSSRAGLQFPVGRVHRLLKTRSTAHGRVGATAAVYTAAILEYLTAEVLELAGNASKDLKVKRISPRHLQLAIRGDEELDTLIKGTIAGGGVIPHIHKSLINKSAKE
UniProt P49107, residues 87-171: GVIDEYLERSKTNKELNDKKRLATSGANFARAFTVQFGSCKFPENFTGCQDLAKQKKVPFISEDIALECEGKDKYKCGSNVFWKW

Target: T1, Thylakoid rhodanese-like protein (TROL) with HA and FLAG tags (TROL-HA-FLAG) (Arabidopsis thaliana) (UniProt Q9M158)
T1 sequence: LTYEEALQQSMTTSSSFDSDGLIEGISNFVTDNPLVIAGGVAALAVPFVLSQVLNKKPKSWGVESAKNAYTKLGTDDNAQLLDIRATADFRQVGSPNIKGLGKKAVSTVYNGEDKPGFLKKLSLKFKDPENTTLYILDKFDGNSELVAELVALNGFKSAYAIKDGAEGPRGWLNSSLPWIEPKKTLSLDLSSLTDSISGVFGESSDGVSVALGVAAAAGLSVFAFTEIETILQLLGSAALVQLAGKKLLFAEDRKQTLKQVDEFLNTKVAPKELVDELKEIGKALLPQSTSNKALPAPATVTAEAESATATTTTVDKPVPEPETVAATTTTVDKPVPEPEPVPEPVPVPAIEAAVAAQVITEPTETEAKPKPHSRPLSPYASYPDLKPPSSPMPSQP
Assay: affinity purification with mass spectrometry; FLAG/HA tandem affinity purification of TROL-HA-FLAG from thylakoids of TROL OX Arabidopsis solubilised in 1% DDM; anti-FLAG resin overnight at 4 °C, RIPA wash, 3 × FLAG peptide elution, anti-HA resin 1.5 h at 4 °C, elution with 8 M urea and Laemmli buffer; GeLC-MS/MS; three independent trials, protein threshold 99.9%, peptide threshold 95%

Molecule: Photosystem I reaction center subunit II-1, chloroplastic (from UniProt Q9S7H1 46-208)
binding: binds

Molecule: Tubulin beta chain (GN = AXX17_At5g62240) (Arabidopsis thaliana)
binding: binds

Molecule: GTP binding Elongation factor Tu family protein (GN = At1g07930) (from UniProt Q8W4H7 1-449)
binding: binds

Molecule: APE1 (Arabidopsis thaliana)
binding: binds

Molecule: Photosystem I chlorophyll a/b-binding protein 3-1, chloroplastic (from UniProt Q9SY97 40-273)
binding: binds

Molecule: Photosystem I reaction center subunit V, chloroplastic (from UniProt Q9S7N7 61-160)
binding: binds

Molecule: Actin-7 (from UniProt P53492 1-377)
binding: binds

Molecule: Chlorophyll a-b binding protein, chloroplastic (GN = AXX17_At1g16590) (Arabidopsis thaliana)
binding: binds

Molecule: CaS (Arabidopsis thaliana)
binding: binds

Molecule: Cytochrome b6 (from UniProt P56773 1-215)
binding: binds

Molecule: Photosystem I P700 chlorophyll a apoprotein A1 (from UniProt P56766 1-750)
binding: binds

Molecule: AT4g28750 (from UniProt Q9S831 45-143)
binding: binds

Molecule: Chlorophyll a-b binding protein 3, chloroplastic (from UniProt Q9S7M0 23-265)
binding: binds

Molecule: Photosystem I P700 chlorophyll a apoprotein A2 (from UniProt P56767 1-734)
binding: binds

Molecule: Photosystem I chlorophyll a/b-binding protein 2, chloroplastic (from UniProt Q9SYW8 44-257)
binding: binds

B1: Ferredoxin--NADP reductase, leaf isozyme 1, chloroplastic (enzyme, UniProt Q9FKW6 50-360)
chain: VTTDTTEAPPVKVVKESKKQEEGIVVNKFKPKNPYTGRCLLNTKITGDDAPGETWHIVFTTEGEVPYREGQSIGVIPEGIDKNGKPHKLRLYSIASSAIGDFGDSKTVSLCVKRLVYTNDGGEIVKGVCSNFLCDLKPGDEAKITGPVGKEMLMPKDPNATIIMLGTGTGIAPFRSFLWKMFFEEHEDYKFNGLAWLFLGVPTSSSLLYKEEFEKMKEKNPDNFRLDFAVSREQTNEKGEKMYIQTRMAEYAEELWELLKKDNTFVYMCGLKGMEKGIDDIMVSLAAKDGIDWLEYKKQLKRSEQWNVEVY
binding: binds

B2: Chlorophyll synthase, chloroplastic (enzyme, UniProt Q38833 58-387)
chain: AAETDTDKVKSQTPDKAPAGGSSINQLLGIKGASQETNKWKIRLQLTKPVTWPPLVWGVVCGAAASGNFHWTPEDVAKSILCMMMSGPCLTGYTQTINDWYDRDIDAINEPYRPIPSGAISEPEVITQVWVLLLGGLGIAGILDVWAGHTTPTVFYLALGGSLLSYIYSAPPLKLKQNGWVGNFALGASYISLPWWAGQALFGTLTPDVVVLTLLYSIAGLGIAIVNDFKSVEGDRALGLQSLPVAFGTETAKWICVGAIDITQLSVAGYLLASGKPYYALALVALIIPQIVFQFKYFLKDPVKYDVKYQASAQPFLVLGIFVTALASQH
binding: binds

B3: Photosystem II 10 kDa polypeptide, chloroplastic (protein, UniProt P27202 42-140)
chain: SGVKKIKTDKPFGINGSMDLRDGVDASGRKGKGYGVYKYVDKYGANVDGYSPIYNENEWSASGDVYKGGVTGLAIWAVTLAGILAGGALLVYNTSALAQ
binding: binds

B4: Protein plastid transcriptionally active 16, chloroplastic (protein, UniProt Q9STF2 20-510)
chain: FNRRKPRLTVWAKQTAFQLGKTKGDDDSEGKQKGKNPFQFDFGKLPDMKSLIPVVTNPSTGLVFGNNRKKDPGTIFVAGATGQAGIRIAQTLLQRGFSVRAGVPDLGAAQDLARVAATYKILSNDEVKRLNAVQSPFQDAESIAKAIGNATKVVVTVGATENGPDAQVSTSDALLVVQAAELAGVSHVAIVYDGTISGSTYNVLDGITSFFGNLFAKSQPLTISDLIEKVAQTDVAYTLIKTSLTEDFSPEKAYNVVVSAEGSNSGSGSSSSEAYKVPKLKIASLVADIFANTAVAENKVVEVSTDPSAPSRPVDELFSVIPEDGRRKVYADAIARERAEEEAKVAADKAREAAEAAKEFEKQMQKLSEKEAEAASLAEDAQQKADAVGVTVDGLFNKAKDISSGLSWNKLGSQFATAIQNASETPKVQVATVRGQAKARNLPPKKAVVKQRPSSPFASKPKEERPKKPEKEVRKVFGGLFKQETIYIDDD
binding: binds

B6: ATP-dependent zinc metalloprotease FTSH 1, chloroplastic (enzyme, UniProt Q39102 87-716)
chain: VVDEPASPSVVIESQAVKPSTPSPLFIQNEILKAPSPKSSDLPEGSQWRYSEFLNAVKKGKVERVRFSKDGSVVQLTAVDNRRASVIVPNDPDLIDILAMNGVDISVSEGESSGNDLFTVIGNLIFPLLAFGGLFLLFRRAQGGPGGGPGGLGGPMDFGRSKSKFQEVPETGVSFADVAGADQAKLELQEVVDFLKNPDKYTALGAKIPKGCLLVGPPGTGKTLLARAVAGEAGVPFFSCAASEFVELFVGVGASRVRDLFEKAKSKAPCIVFIDEIDAVGRQRGAGMGGGNDEREQTINQLLTEMDGFSGNSGVIVLAATNRPDVLDSALLRPGRFDRQVTVDRPDVAGRVKILQVHSRGKALGKDVDFDKVARRTPGFTGADLQNLMNEAAILAARRELKEISKDEISDALERIIAGPEKKNAVVSEEKKRLVAYHEAGHALVGALMPEYDPVAKISIIPRGQAGGLTFFAPSEERLESGLYSRSYLENQMAVALGGRVAEEVIFGDENVTTGASNDFMQVSRVARQMIERFGFSKKIGQVAVGGPGGNPFMGQQMSSQKDYSMATADIVDAEVRELVEKAYKRATEIITTHIDILHKLAQLLIEKETVDGEEFMSLFIDGQAELYIS
binding: binds

B7: Lipoxygenase 2, chloroplastic (enzyme, UniProt P38418 57-896)
chain: ANIEQEGNTVKEPIQNIKVKGYITAQEEFLEGITWSRGLDDIADIRGRSLLVELISAKTDQRITVEDYAQRVWAEAPDEKYECEFEMPEDFGPVGAIKIQNQYHRQLFLKGVELKLPGGSITFTCESWVAPKSVDPTKRIFFSDKSYLPSQTPEPLKKYRKEELETLQGKNREEVGEFTKFERIYDYDVYNDVGDPDNDPELARPVIGGLTHPYPRRCKTGRKPCETDPSSEQRYGGEFYVPRDEEFSTAKGTSFTGKAVLAALPSIFPQIESVLLSPQEPFPHFKAIQNLFEEGIQLPKDAGLLPLLPRIIKALGEAQDDILQFDAPVLINRDRFSWLRDDEFARQTLAGLNPYSIQLVEEWPLISKLDPAVYGDPTSLITWEIVEREVKGNMTVDEALKNKRLFVLDYHDLLLPYVNKVRELNNTTLYASRTLFFLSDDSTLRPVAIELTCPPNINKPQWKQVFTPGYDATSCWLWNLAKTHAISHDAGYHQLISHWLRTHACTEPYIIAANRQLSAMHPIYRLLHPHFRYTMEINARARQSLVNGGGIIETCFWPGKYALELSSAVYGKLWRFDQEGLPADLIKRGLAEEDKTAEHGVRLTIPDYPFANDGLILWDAIKEWVTDYVKHYYPDEELITSDEELQGWWSEVRNIGHGDKKDEPWWPVLKTQDDLIGVVTTIAWVTSGHHAAVNFGQYGYGGYFPNRPTTTRIRMPTEDPTDEALKEFYESPEKVLLKTYPSQKQATLVMVTLDLLSTHSPDEEYIGEQQEASWANEPVINAAFERFKGKLQYLEGVIDERNVNITLKNRAGAGVVKYELLKPTSEHGVTGMGVPYSISI
binding: binds

Now from value to molecule:

binding: binds
Molecule: Photosystem I subunit O (from UniProt Q949Q5 52-140)

binding: binds
Molecule: ATP synthase subunit alpha, chloroplastic (from UniProt P56757 1-507)

binding: binds
Molecule: Chlorophyll a-b binding protein 4, chloroplastic (Arabidopsis thaliana)

binding: binds
Molecule: Chlorophyll a-b binding protein 6, chloroplastic (from UniProt Q01667 36-241)

binding: binds
Molecule: PSAF (Arabidopsis thaliana)

binding: binds
Molecule: Probable histone H2A variant 3 (from UniProt Q9C944 1-134)

binding: binds
Molecule: HCF244 (Arabidopsis thaliana)

binding: binds
Molecule: Photosystem I reaction center subunit N, chloroplastic (from UniProt P49107 87-171)

binding: binds
B5: Ferredoxin--NADP reductase, leaf isozyme 2, chloroplastic (enzyme, UniProt Q8W493 58-369)
chain: ITTETDTPTPAKKVEKVSKKNEEGVIVNRYRPKEPYTGKCLLNTKITADDAPGETWHMVFSHQGEIPYREGQSVGVIADGIDKNGKPHKVRLYSIASSALGDLGNSETVSLCVKRLVYTNDQGETVKGVCSNFLCDLAPGSDVKLTGPVGKEMLMPKDPNATVIMLATGTGIAPFRSFLWKMFFEKHDDYKFNGLAWLFLGVPTTSSLLYQEEFDKMKAKAPENFRVDYAISREQANDKGEKMYIQTRMAQYAAELWELLKKDNTFVYMCGLKGMEKGIDDIMVSLAANDGIDWFDYKKQLKKAEQWNVEVY

binding: binds
B8: Probable plastid-lipid-associated protein 8, chloroplastic (protein, UniProt Q941D3 53-239)
chain: SVSAPNVELRTGPDDLISTLLSKVANSDGGVTLSPEQHKEVAQVAGELQKYCVKEPVKNPLIFGDWEVVYCSRPTSPGGGYRSVIGRLFFKTKEMIQAIDAPDIVRNKVSINAFGFLDGDVSLTGKLKALDSEWVQVIFEPPEIKVGSLEFKYGFESEVKLRITYVDEKLRLGLGSKGSLFVFRRRQ

binding: binds
B9: Light-regulated protein 1, chloroplastic (protein, UniProt Q96500 42-141)
chain: SNNSSSSSSLTSDPNTVDYNSSILSVFPAEACEVISGYACSADIYPEVKLDTKPVSRPVASEPVDREYEEYNSPKTVFREEACDDLGGEFCEPDFQKDAN

binding: binds
B10: UPF0603 protein At1g54780, chloroplastic (protein, UniProt Q9ZVL6 85-285)
chain: SEFNILNDGPPKETYVVDDAGVLSRVTKSDLKKLLSDLEYRKKLRLNFITVRKLTSKADAFEYADQVLEKWYPSIEEGNNKGIVVLITSQKEGAITGGPAFIEAVGENILDATVSENLPVLATDEKYNEAVYSSAKRLVAAIDGQPDPGGPTVKDSKRESNFKTKEETDEKRGQFSLVVGGLLVIAFVVPMAQYFAYVSRK
